According to EP1319400A2, “Process to generate submicron particles of water-insoluble compounds” (SKYEPHARMA CANADA INC., priority 1998, dated 1999):
At least one structure is not confirmed: it was looked up by name or label, or the drawing left a doubt.

Assay: Particle sizing of aqueous suspension by photon correlation spectroscopy (NICOMP Submicron Particle Sizer-Autodilute Model 370)
Format: physicochemical
Details: Example 2, RELGS process: Fenofibrate (2g), Lipoid E-80 (0.2g), Tween-80 (0.2g) in liquefied carbon dioxide at 3000 psi expanded into water, 22°C

Q: For `CC(C)OC(=O)C(C)(C)Oc1ccc(C(=O)c2ccc(Cl)cc2)cc1` [Fenofibrate], which mean particle size is on record?
A: Its mean particle size is “about 200 nm”.
